In paper PMC3826667, “S100A9 protein is a novel ligand for the CD85j receptor and its interaction is implicated in the control of HIV-1 replication by NK cells” (Retrovirology, 2013):
Results are given in words; binding and its absence hold for the method and conditions named. For some of these results: In cells and extracts the contact can be indirect. Some binding calls cover weakened binding; strength is not graded here. Each block holds one binder with its values, some of them ahead of it.

Amino acid sequences for entries named in this document (tags omitted). Residues count along the entry.
UniProt Q8NHL6, residues 24-461: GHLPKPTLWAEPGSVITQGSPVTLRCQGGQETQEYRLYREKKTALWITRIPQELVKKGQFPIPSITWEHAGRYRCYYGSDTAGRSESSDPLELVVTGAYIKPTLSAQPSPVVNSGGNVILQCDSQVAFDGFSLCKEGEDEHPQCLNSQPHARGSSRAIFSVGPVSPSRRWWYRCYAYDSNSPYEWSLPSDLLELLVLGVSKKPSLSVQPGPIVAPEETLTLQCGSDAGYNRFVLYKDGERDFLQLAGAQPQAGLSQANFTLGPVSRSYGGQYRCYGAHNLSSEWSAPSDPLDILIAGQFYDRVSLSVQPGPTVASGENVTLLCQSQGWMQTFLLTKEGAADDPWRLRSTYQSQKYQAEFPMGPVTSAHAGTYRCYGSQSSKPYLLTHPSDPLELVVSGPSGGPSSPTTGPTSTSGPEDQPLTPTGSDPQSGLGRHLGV

Columns and labels:
[1] = target: T1, recombinant CD85j-Fc fusion protein (human, UniProt Q8NHL6 24-461); test: pull-down; CD85j-Fc covalently immobilised on an amine-reactive gel column (ProFound Co-immunoprecipitation kit); MDDC lysates (0.5% Triton X-100; CD85j and HLA class-I blocked with mAbs before lysis) loaded, washed, eluted; eluates on non-reducing 4-12% NuPAGE with silver staining, protein sequencing of bands and immunoblot; only the target purified
T1 construct: CD85j (LILRB1, ILT2, LIR-1), human; also called CD85j fusion protein; LILRB1; source: bought: R&D System

[2] = target: T1, recombinant CD85j-Fc fusion protein; test: SELDI-TOF-MS protein chip array; PS10 protein chip incubated with CD85j-Fc at 500 ug/ml in PBS, 4°C, 18 h; samples (MDDC lysates and eluted fractions) applied 2 h at room temperature; washes with 1 mM NaCl, 5 mM HEPES; captured proteins detected as mass peaks; only the target purified
[3] = target: T1, recombinant CD85j-Fc fusion protein; test: ELISA; CD85j-Fc-coated wells, increasing concentrations of S100A8 monomer, S100A9 monomer or S100A9 tetramer, 2 h at 37°C; detected with HRP goat anti-GST polyclonal antibody; both purified

B1: S100A9 monomer (14 kDa) of MDDC (protein, UniProt P06702 1-114)
chain: MTCKMSQLERNIETIINTFHQYSVKLGHPDTLNQGEFKELVRKDLQNFLKKENKNEKVIEHIMEDLDTNADKQLSFEEFIMLMARLTWASHEKMHEGDEGPGHHHKPGLGEGTP
binding [1]: binds | binding [2]: binds

B2: S100A9 tetramer protein (protein, UniProt P06702 1-114)
chain: B1 chain
binding [3]: binds

B5: S100A8/S100A9 heterodimer (26 kDa) of MDDC (complex, UniProt P05109 1-93; P06702 1-114)
chain 1: MLTELEKALNSIIDVYHKYSLIKGNFHAVYRDDLKKLLETECPQYIRKKGADVWFKELDINTDGAVNFQEFLILVIKMGVAAHKKSHEESHKE
chain 2: B1 chain
binding [1]: binds | binding [2]: binds

Other lines, results leading:

binding [1]: binds | binding [2]: binds
B3: recombinant GST-tagged human S100A8 monomer protein (natural protein, UniProt P05109 1-93, looked up)
chain: B5 chain 1
notes: S100A8, human, recombinant, GST-tagged; source: bought: Tebu-bio

binding [1]: binds | binding [2]: binds
B4: (S100A8)2/(S100A9) trimer (32 kDa) of MDDC (complex, UniProt P05109 1-93; P06702 1-114)
chain 1: B5 chain 1
chain 2: B1 chain

binding [1]: binds
B6: (S100A8/S100A9)2 tetramer (49 kDa) of MDDC (complex, UniProt P05109 1-93; P06702 1-114)
chain 1: B5 chain 1
chain 2: B1 chain
